Data reported in publication PMC5841321.

Chains of the proteins cited; added tags and fusions are not shown.
UniProt O00487: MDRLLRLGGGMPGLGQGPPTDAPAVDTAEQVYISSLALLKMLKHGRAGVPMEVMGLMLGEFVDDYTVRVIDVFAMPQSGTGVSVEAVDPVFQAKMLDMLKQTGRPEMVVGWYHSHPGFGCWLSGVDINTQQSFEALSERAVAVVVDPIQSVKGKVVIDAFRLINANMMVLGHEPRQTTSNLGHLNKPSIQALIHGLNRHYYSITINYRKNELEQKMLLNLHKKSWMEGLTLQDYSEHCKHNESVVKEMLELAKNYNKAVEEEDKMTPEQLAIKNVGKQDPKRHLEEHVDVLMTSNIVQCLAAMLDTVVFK
UniProt Q13509: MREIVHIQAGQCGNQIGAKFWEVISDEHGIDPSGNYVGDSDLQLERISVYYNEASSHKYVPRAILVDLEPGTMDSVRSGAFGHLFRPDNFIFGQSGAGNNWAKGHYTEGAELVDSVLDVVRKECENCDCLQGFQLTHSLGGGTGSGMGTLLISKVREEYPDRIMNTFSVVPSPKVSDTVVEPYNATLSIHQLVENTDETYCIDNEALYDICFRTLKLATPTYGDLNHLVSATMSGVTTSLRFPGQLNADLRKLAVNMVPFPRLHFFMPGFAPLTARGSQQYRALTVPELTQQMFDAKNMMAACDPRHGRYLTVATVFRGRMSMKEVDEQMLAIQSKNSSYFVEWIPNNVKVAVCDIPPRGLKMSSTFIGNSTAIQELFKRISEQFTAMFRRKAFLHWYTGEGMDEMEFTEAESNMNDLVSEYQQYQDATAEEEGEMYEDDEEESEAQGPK
UniProt O75832: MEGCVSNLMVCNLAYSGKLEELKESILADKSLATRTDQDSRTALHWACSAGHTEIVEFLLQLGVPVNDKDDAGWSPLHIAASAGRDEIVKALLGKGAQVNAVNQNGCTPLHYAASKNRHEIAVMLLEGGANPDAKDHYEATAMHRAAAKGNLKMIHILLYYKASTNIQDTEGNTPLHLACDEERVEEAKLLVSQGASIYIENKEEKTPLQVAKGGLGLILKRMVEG
UniProt Q5UIP0: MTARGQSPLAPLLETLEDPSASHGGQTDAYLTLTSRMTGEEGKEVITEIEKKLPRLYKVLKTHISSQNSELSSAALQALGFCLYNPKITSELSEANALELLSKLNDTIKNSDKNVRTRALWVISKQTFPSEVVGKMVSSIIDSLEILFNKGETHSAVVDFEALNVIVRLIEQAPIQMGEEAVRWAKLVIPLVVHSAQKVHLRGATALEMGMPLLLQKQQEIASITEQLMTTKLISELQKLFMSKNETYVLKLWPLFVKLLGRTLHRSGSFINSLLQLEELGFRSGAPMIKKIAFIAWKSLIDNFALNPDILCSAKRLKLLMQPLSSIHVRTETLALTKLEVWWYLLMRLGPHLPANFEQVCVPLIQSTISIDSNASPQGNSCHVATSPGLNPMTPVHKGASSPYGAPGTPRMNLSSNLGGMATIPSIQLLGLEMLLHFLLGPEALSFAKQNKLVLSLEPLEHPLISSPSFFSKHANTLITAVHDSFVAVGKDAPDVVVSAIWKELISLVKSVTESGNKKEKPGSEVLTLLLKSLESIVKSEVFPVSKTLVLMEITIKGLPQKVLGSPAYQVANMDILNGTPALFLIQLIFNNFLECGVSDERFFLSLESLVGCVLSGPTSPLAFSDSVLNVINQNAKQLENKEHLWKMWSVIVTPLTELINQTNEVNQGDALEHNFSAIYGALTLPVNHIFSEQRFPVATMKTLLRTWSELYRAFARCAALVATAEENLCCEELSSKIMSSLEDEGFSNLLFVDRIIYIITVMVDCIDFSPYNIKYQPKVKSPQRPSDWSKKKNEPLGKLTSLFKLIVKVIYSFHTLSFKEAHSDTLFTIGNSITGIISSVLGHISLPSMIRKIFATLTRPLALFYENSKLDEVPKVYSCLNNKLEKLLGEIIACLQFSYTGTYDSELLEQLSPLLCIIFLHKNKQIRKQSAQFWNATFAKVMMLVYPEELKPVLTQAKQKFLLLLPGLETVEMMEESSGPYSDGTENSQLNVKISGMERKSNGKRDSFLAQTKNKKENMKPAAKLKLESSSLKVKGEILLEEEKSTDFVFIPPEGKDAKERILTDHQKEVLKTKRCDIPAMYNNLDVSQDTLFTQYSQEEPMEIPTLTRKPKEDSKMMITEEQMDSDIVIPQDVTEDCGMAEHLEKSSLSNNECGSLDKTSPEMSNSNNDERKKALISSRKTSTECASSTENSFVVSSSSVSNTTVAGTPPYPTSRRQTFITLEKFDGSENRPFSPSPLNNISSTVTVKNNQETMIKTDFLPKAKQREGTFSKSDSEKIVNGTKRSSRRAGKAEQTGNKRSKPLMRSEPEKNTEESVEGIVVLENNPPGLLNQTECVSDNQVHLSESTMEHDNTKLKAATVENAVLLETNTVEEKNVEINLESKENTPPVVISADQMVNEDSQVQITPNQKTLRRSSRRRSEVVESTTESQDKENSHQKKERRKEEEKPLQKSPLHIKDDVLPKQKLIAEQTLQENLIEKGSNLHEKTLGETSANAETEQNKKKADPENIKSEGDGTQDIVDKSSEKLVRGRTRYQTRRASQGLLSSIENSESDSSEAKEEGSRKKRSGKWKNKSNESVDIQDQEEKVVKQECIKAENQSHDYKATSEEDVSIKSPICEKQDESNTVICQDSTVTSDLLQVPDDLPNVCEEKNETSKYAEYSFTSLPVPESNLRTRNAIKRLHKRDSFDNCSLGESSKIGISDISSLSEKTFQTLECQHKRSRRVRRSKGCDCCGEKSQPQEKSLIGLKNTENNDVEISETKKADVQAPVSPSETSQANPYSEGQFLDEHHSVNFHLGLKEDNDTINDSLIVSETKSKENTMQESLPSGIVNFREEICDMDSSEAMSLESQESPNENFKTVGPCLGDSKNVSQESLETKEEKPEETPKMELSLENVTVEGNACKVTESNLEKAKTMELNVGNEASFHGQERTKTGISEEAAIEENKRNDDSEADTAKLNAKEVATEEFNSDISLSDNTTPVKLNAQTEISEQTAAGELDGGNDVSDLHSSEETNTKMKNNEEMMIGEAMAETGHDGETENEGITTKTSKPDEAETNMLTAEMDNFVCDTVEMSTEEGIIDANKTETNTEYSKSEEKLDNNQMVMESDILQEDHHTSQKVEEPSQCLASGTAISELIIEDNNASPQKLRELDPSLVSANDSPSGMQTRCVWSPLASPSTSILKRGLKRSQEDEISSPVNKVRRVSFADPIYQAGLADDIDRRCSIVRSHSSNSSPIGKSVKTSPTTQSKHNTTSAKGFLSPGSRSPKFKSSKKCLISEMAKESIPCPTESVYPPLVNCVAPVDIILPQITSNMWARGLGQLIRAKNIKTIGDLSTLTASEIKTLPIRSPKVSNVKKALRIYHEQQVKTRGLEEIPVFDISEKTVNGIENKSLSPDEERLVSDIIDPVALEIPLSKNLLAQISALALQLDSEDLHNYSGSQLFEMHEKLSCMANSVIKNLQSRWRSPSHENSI
UniProt Q71RC2: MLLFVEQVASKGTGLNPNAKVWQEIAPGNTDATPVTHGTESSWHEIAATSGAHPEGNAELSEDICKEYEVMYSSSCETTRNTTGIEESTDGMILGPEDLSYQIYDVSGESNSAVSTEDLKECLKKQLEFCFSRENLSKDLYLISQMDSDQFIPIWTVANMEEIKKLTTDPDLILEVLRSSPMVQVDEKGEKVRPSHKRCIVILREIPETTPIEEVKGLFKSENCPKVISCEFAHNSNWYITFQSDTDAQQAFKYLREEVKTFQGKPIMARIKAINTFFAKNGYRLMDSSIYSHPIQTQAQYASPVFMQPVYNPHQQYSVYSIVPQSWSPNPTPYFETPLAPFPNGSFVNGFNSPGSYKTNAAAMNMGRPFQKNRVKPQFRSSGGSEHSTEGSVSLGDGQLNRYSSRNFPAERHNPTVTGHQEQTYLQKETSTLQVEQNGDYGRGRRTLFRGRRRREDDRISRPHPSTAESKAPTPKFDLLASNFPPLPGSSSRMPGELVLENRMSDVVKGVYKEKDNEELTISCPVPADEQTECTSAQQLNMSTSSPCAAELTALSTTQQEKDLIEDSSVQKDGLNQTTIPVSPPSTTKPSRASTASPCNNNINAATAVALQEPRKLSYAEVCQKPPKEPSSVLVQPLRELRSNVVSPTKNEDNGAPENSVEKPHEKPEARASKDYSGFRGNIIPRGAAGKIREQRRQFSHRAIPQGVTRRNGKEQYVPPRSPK
UniProt Q15008: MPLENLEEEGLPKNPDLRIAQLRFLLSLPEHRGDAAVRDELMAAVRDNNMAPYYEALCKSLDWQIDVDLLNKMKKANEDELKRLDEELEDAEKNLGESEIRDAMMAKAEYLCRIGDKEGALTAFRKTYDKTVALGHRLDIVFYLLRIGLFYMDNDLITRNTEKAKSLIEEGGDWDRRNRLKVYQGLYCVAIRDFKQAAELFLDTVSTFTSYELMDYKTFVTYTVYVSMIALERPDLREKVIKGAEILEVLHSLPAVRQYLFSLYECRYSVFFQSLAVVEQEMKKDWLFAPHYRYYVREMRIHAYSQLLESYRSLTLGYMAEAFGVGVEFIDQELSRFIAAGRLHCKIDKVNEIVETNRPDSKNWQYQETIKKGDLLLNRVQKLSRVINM
UniProt P35579: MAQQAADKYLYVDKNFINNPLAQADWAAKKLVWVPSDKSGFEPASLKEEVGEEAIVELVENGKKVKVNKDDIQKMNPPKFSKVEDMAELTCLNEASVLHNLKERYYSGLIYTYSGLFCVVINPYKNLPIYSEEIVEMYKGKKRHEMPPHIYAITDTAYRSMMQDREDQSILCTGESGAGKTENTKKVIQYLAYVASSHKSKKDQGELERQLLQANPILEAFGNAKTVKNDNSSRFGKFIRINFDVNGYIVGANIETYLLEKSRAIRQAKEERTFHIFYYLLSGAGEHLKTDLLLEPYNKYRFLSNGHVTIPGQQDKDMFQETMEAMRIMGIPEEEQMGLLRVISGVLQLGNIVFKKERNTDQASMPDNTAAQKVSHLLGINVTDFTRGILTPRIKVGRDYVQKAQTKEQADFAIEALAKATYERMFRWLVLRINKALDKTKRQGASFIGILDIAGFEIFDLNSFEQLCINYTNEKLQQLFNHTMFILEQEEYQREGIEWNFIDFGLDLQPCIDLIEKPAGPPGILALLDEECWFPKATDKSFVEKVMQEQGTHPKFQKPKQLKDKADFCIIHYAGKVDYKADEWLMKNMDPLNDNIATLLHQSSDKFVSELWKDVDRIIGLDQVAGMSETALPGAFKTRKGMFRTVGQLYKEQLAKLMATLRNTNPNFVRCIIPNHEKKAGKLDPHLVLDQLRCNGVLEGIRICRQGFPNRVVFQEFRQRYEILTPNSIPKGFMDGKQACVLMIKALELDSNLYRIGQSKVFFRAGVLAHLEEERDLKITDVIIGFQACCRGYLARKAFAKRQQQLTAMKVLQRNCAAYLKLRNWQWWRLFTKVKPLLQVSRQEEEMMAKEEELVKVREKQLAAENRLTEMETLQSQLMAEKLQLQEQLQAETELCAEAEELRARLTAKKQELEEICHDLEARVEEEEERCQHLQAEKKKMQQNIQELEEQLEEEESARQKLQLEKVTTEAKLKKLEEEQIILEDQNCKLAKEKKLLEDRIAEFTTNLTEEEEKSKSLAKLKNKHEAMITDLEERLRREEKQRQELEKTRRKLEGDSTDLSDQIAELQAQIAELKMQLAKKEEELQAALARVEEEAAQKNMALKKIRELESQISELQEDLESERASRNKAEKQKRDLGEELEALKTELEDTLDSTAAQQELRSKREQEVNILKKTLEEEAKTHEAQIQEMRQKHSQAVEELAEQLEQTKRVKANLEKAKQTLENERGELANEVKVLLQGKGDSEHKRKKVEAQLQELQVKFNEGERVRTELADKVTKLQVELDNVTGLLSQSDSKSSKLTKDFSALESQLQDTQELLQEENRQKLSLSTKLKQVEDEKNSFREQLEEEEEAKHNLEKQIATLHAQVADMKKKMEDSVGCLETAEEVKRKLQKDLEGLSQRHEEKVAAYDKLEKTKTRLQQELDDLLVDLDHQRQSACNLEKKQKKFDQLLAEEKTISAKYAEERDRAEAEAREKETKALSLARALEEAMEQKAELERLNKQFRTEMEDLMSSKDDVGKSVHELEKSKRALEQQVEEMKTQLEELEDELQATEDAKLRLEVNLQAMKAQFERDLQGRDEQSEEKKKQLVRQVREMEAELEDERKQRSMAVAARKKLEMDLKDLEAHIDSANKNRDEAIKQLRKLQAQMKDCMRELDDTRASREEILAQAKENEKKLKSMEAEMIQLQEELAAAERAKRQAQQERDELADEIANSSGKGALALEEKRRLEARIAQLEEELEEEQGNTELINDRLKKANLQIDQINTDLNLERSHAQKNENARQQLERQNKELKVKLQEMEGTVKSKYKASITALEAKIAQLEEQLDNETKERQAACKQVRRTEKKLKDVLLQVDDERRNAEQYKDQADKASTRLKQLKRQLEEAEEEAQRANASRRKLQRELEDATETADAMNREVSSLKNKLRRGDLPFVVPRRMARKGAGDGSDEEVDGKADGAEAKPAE

T1: E3 ubiquitin-protein ligase Midline-1 (UniProt O15344)
T1 sequence: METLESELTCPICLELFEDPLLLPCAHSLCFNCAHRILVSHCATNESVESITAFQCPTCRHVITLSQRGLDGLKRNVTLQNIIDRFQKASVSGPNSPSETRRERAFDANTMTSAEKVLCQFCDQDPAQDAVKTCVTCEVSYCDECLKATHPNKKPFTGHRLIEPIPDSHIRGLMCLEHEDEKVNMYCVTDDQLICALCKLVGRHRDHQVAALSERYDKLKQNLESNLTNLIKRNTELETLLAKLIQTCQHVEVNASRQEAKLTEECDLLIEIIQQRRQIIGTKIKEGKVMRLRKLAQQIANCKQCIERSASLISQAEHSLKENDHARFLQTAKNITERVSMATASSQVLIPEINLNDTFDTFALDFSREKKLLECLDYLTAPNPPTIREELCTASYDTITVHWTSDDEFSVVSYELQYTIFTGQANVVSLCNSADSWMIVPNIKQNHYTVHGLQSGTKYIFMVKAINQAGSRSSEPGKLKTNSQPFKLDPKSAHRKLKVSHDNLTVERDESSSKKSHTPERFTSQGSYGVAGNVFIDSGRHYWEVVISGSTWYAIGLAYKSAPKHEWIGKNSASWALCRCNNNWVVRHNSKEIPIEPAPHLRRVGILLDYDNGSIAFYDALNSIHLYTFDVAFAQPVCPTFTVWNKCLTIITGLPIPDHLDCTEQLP


What follows are molecules tested against T1, E3 ubiquitin-protein ligase Midline-1 (assay: affinity purification with mass spectrometry; MID1-FLAG expressed in HEK293T, lysate in TKM buffer (20 mM Tris pH 7.4, 100 mM KCl, 5 mM MgCl2, 0.5% NP40, 1 mM DTT), anti-FLAG M1 agarose overnight at 4 °C, 6 washes; untransfected cells as control; Q-Exactive, MaxQuant, 1% FDR).

| Molecule | binding |
| --- | --- |
| Kinesin-like protein KIF11 (from UniProt P52732 1-1056) | binds |
| 26S proteasome non-ATPase regulatory subunit 13 (from UniProt Q9UNM6 1-376) | binds |
| 26S proteasome non-ATPase regulatory subunit 3 (from UniProt O43242 1-534) | binds |
| Probable ATP-dependent RNA helicase DDX20 (from UniProt Q9UHI6 1-824) | binds |
| 26S proteasome non-ATPase regulatory subunit 14 (from UniProt O00487 1-310) | binds |
| SRSF protein kinase 2 (from UniProt P78362 1-688) | binds |
| Tubulin beta-3 chain (from UniProt Q13509 1-450) | binds |
| 26S protease regulatory subunit 7 (from UniProt P35998 1-433) | binds |
| 26S proteasome non-ATPase regulatory subunit 10 (from UniProt O75832 1-226) | binds |
| Probable ATP-dependent RNA helicase DDX41 (from UniProt Q9UJV9 1-622) | binds |
| Serine/threonine-protein kinase 38 (from UniProt Q15208 1-465) | binds |
| Eukaryotic initiation factor 4A-III (from UniProt P38919 1-411) | binds |
| Telomere-associated protein RIF1 (from UniProt Q5UIP0 1-2472) | binds |
| La-related protein 4 (from UniProt Q71RC2 1-724) | binds |
| Eukaryotic translation initiation factor 3 subunit H (from UniProt O15372 1-352) | binds |
| Unconventional myosin-Ib (from UniProt O43795 1-1136) | binds |
| 26S proteasome non-ATPase regulatory subunit 7 (from UniProt P51665 1-324) | binds |

| Molecule | binding |
| --- | --- |
| La-related protein 4B (from UniProt Q92615 1-738) | binds |
| 26S proteasome non-ATPase regulatory subunit 6 (from UniProt Q15008 1-389) | binds |
| Myosin-9 (from UniProt P35579 1-1960) | binds |
| Prolyl 4-hydroxylase subunit alpha-1 (from UniProt P13674 18-534) | binds |
| Importin-8 (from UniProt O15397 1-1037) | binds |
| Nucleolar RNA helicase 2 (from UniProt Q9NR30 1-783) | binds |
| Heterogeneous nuclear ribonucleoprotein K (from UniProt P61978 1-463) | binds |
| Probable ATP-dependent RNA helicase DDX23 (from UniProt Q9BUQ8 1-820) | binds |
| Protein PRRC2A (from UniProt P48634 1-2157) | binds |
| Spectrin alpha chain, non-erythrocytic 1 (from UniProt Q13813 1-2472) | binds |
| Eukaryotic translation initiation factor 3 subunit B (from UniProt P55884 1-814) | binds |
| Transitional endoplasmic reticulum ATPase (from UniProt P55072 1-806) | binds |
| ATP-binding cassette sub-family D member 3 (protein, UniProt P28288 1-659) MAAFSKYLTARNSSLAGAAFLLLCLLHKRRRALGLHGKKSGKPPLQNNEKEGKKERAVVDKVFFSRLIQILKIMVPRTFCKETGYLVLIAVMLVSRTYCDVWMIQNGTLIESGIIGRSRKDFKRYLLNFIAAMPLISLVNNFLKYGLNELKLCFRVRLTKYLYEEYLQAFTYYKMGNLDNRIANPDQLLTQDVEKFCNSVVDLYSNLSKPFLDIVLYIFKLTSAIGAQGPASMMAYLVVSGLFLTRLRRPIGKMTITEQKYEGEYRYVNSRLITNSEEIAFYNGNKREKQTVHSVFRKLVEHLHNFILFRFSMGFIDSIIAKYLATVVGYLVVSRPFLDLSHPRHLKSTHSELLEDYYQSGRMLLRMSQALGRIVLAGREMTRLAGFTARITELMQVLKDLNHGKYERTMVSQQEKGIEGVQVIPLIPGAGEIIIADNIIKFDHVPLATPNGDVLIRDLNFEVRSGANVLICGPNGCGKSSLFRVLGELWPLFGGRLTKPERGKLFYVPQRPYMTLGTLRDQVIYPDGREDQKRKGISDLVLKEYLDNVQLGHILEREGGWDSVQDWMDVLSGGEKQRMAMARLFYHKPQFAILDECTSAVSVDVEGYIYSHCRKVGITLFTVSHRKSLWKHHEYYLHMDGRGNYEFKQITEDTVEFGS | binds |
| Putative RNA-binding protein Luc7-like 2 (protein, UniProt Q9Y383 1-392) MSAQAQMRAMLDQLMGTSRDGDTTRQRIKFSDDRVCKSHLLNCCPHDVLSGTRMDLGECLKVHDLALRADYEIASKEQDFFFELDAMDHLQSFIADCDRRTEVAKKRLAETQEEISAEVAAKAERVHELNEEIGKLLAKVEQLGAEGNVEESQKVMDEVEKARAKKREAEEVYRNSMPASSFQQQKLRVCEVCSAYLGLHDNDRRLADHFGGKLHLGFIEIREKLEELKRVVAEKQEKRNQERLKRREEREREEREKLRRSRSHSKNPKRSRSREHRRHRSRSMSRERKRRTRSKSREKRHRHRSRSSSRSRSRSHQRSRHSSRDRSRERSKRRSSKERFRDQDLASCDRDRSSRDRSPRDRDRKDKKRSYESANGRSEDRRSSEEREAGEI | binds |
| Luc7-like protein 3 (protein, UniProt O95232 1-432) MISAAQLLDELMGRDRNLAPDEKRSNVRWDHESVCKYYLCGFCPAELFTNTRSDLGPCEKIHDENLRKQYEKSSRFMKVGYERDFLRYLQSLLAEVERRIRRGHARLALSQNQQSSGAAGPTGKNEEKIQVLTDKIDVLLQQIEELGSEGKVEEAQGMMKLVEQLKEERELLRSTTSTIESFAAQEKQMEVCEVCGAFLIVGDAQSRVDDHLMGKQHMGYAKIKATVEELKEKLRKRTEEPDRDERLKKEKQEREEREKEREREREERERKRRREEEEREKERARDRERRKRSRSRSRHSSRTSDRRCSRSRDHKRSRSRERRRSRSRDRRRSRSHDRSERKHRSRSRDRRRSKSRDRKSYKHRSKSRDREQDRKSKEKEKRGSDDKKSSVKSGSREKQSEDTNTESKESDTKNEVNGTSEDIKSEGDTQSN | binds |
| Methionine--tRNA ligase, cytoplasmic (protein, UniProt P56192 1-900) MRLFVSDGVPGCLPVLAAAGRARGRAEVLISTVGPEDCVVPFLTRPKVPVLQLDSGNYLFSTSAICRYFFLLSGWEQDDLTNQWLEWEATELQPALSAALYYLVVQGKKGEDVLGSVRRALTHIDHSLSRQNCPFLAGETESLADIVLWGALYPLLQDPAYLPEELSALHSWFQTLSTQEPCQRAAETVLKQQGVLALRPYLQKQPQPSPAEGRAVTNEPEEEELATLSEEEIAMAVTAWEKGLESLPPLRPQQNPVLPVAGERNVLITSALPYVNNVPHLGNIIGCVLSADVFARYSRLRQWNTLYLCGTDEYGTATETKALEEGLTPQEICDKYHIIHADIYRWFNISFDIFGRTTTPQQTKITQDIFQQLLKRGFVLQDTVEQLRCEHCARFLADRFVEGVCPFCGYEEARGDQCDKCGKLINAVELKKPQCKVCRSCPVVQSSQHLFLDLPKLEKRLEEWLGRTLPGSDWTPNAQFITRSWLRDGLKPRCITRDLKWGTPVPLEGFEDKVFYVWFDATIGYLSITANYTDQWERWWKNPEQVDLYQFMAKDNVPFHSLVFPCSALGAEDNYTLVSHLIATEYLNYEDGKFSKSRGVGVFGDMAQDTGIPADIWRFYLLYIRPEGQDSAFSWTDLLLKNNSELLNNLGNFINRAGMFVSKFFGGYVPEMVLTPDDQRLLAHVTLELQHYHQLLEKVRIRDALRSILTISRHGNQYIQVNEPWKRIKGSEADRQRAGTVTGLAVNIAALLSVMLQPYMPTVSATIQAQLQLPPPACSILLTNFLCTLPAGHQIGTVSPLFQKLENDQIESLRQRFGGGQAKTSPKPAVVETVTTAKPQQIQALMDEVTKQGNIVRELKAQKADKNEVAAEVAKLLDLKKQLAVAEGKPPEAPKGKKKK | binds |
| Matrin-3 (protein, UniProt P43243 1-847) MSKSFQQSSLSRDSQGHGRDLSAAGIGLLAAATQSLSMPASLGRMNQGTARLASLMNLGMSSSLNQQGAHSALSSASTSSHNLQSIFNIGSRGPLPLSSQHRGDADQASNILASFGLSARDLDELSRYPEDKITPENLPQILLQLKRRRTEEGPTLSYGRDGRSATREPPYRVPRDDWEEKRHFRRDSFDDRGPSLNPVLDYDHGSRSQESGYYDRMDYEDDRLRDGERCRDDSFFGETSHNYHKFDSEYERMGRGPGPLQERSLFEKKRGAPPSSNIEDFHGLLPKGYPHLCSICDLPVHSNKEWSQHINGASHSRRCQLLLEIYPEWNPDNDTGHTMGDPFMLQQSTNPAPGILGPPPPSFHLGGPAVGPRGNLGAGNGNLQGPRHMQKGRVETSRVVHIMDFQRGKNLRYQLLQLVEPFGVISNHLILNKINEAFIEMATTEDAQAAVDYYTTTPALVFGKPVRVHLSQKYKRIKKPEGKPDQKFDQKQELGRVIHLSNLPHSGYSDSAVLKLAEPYGKIKNYILMRMKSQAFIEMETREDAMAMVDHCLKKALWFQGRCVKVDLSEKYKKLVLRIPNRGIDLLKKDKSRKRSYSPDGKESPSDKKSKTDGSQKTESSTEGKEQEEKSGEDGEKDTKDDQTEQEPNMLLESEDELLVDEEEAAALLESGSSVGDETDLANLGDVASDGKKEPSDKAVKKDGSASAAAKKKLKKVDKIEELDQENEAALENGIKNEENTEPGAESSENADDPNKDTSENADGQSDENKDDYTIPDEYRIGPYQPNVPVGIDYVIPKTGFYCKLCSLFYTNEEVAKNTHCSSLPHYQKLKKFLNKLAEERRQKKET | binds |

Results are given in words; binding and its absence hold for the method and conditions named. Binding seen in cells or lysates may run through a third protein. A yes stands for co-enrichment or nearness to the bait. Other partners may have been found. Sequences can lack the tags named with a protein.
